# Reference: patent US5935927A, “Compositions and methods for stimulating amyloid removal in amyloidogenic diseases using advanced glycosylation endproducts” (The Picower Institute For Medical Research, priority 1996, dated 1999)
# By UniProt entry, the sequences of proteins in these tests, tags left out. Residues count along the entry.
# UniProt P05067, 672-713 limits assumed: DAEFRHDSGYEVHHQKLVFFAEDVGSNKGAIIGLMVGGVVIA
# At least one compound was matched to its structure with a doubt left.
# Molecular target: T1, fibrillar β-amyloid peptide (Homo sapiens, UniProt P05067)
# T1 construct: Soluble β-amyloid peptide was allowed to aggregate in the presence of phosphate buffer, Compound 8 or dithionitrobenzene
# Assay: Co-precipitation of compound with aggregated β-amyloid peptide, absorbance of supernatant
# Assay type: binding
smiles,measurement,setting,value
"Cc1ccc2nc(-c3ccc(NCCCC[N+](C)(C)C[C@@]4(O)OC[C@@H](O)[C@@H](O)[C@@H]4O)cc3)sc2c1 [Compound 8, (4-[N-(4-[N-(1-deoxy-β-D-fructopyranos-1-yl)-N,N-dimethylammonio]butyl)amino]phenyl)-6-methylbenzothiazole chloride]",association with aggregated β-amyloid peptide,conclusion from co-precipitation,"specifically associates with insoluble, aggregated β-amyloid peptide deposits"
same,"absorbance at 350 nm of supernatant after pelleting of fibrillar β-amyloid peptide, compared to before pelleting","overnight incubation, 15,000×g 30 minutes, FIG. 7",reduced
